Results taken from patent US9278994B2, “Short antimicrobial lipopeptides” (Helix BioMedix Inc., priority 2012, dated 2016).
Where two headings read alike, the source gives them in different places. At least one peptide structure holds a part that was inferred or is arguable (an end, a ring closure or a residue). Some of these results come from one statement about several compounds together. Where a SMILES comes first, the peptide text is derived from it. [ ]: non-standard residue; d: D form. The star is where a group is joined. Palmitoyl = CCCCCCCCCCCCCCCC(=O)*

Legend:
[1] = system: P. acnes ATCC11827; test: Kill kinetics in PBS; format: cell-based, Propionibacterium acnes; conditions: detection limit 10 CFU/ml
Experimental: (§1) 3. […] The minimal inhibitory concentration (MIC) of each peptide was determined using modified CLSI microtiter broth dilution assay (Methods for Dilution Antimicrobial Susceptibility Tests for Bacteria That Grow Aerobically; Approved Standard—Ninth Edition). An inoculum of 10^5-10^6 colony forming units (CFU)/ml was used or 10^4 CFU/ml for yeast. The MIC value was taken as the lowest peptide concentration at which more than 90% of microbial growth was inhibited after 15 to 20 h of incubation at 37° C. For P. acnes, the incubation was kept under anaerobic condition at 37° C. for 2 weeks before MIC was determined Kill kinetics was performed using a given concentration (about 2-5-fold MIC) of peptide mixed with indicator microorganism. After appropriate dilution the cells were plated on agar plates after defined time intervals and incubated at 37° C. overnight. In the case of P. acnes an extended incubation period was required. The CFU was counted and plotted as survival of bacteria after peptide treatment over time, which indicates the effectiveness of a peptide to kill a microbe.

[2] = system: EpiDerm (EPI-200) skin tissue; test: Skin tissue toxicity, EpiDerm skin model with MTT assay; format: cell-based; conditions: tissue viability (MTT), treated 20 hr
Experimental: 4. Skin tissue toxicity determination. Skin toxicity and compatibility was determined using EpiDerm (EPI-200) skin tissue and MTT Kit (MTT-100) (MatTek, Ashland, Mass.) according to the manufacture's instruction. 1% Triton X-100 and PBS were used as positive (toxic) and negative (non-toxic) control, respectively.
Potential for dermal irritancy of the lipodipeptides was tested using EpiDerm™ Skin Model (MatTek, Ashland, Mass.) in combination with a modified MTT assay. […] EpiDerm™ consists of organized basal, spinous, granular, and cornified layers analogous to those found in vivo. The tissues were treated with each compound at desired concentration for 20 hr.

[3] = system: P. acnes, S. aureus, E. coli and yeast C. albicans; test: Kill kinetics in PBS as summarised in the text; format: cell-based; conditions: within 20 min of direct contact in PBS
[4] = system: P. acnes, S. aureus, E. coli and C. albicans; test: MIC / antimicrobial activity; format: cell-based; conditions: for antimicrobial activity (in words): summary of MIC results of Table 1; for MIC (no detectable MIC / inactive at up to): MH broth, organisms not named in the sentence (Table 1)
Experimental: 2. Bacterial strains and culture conditions. E. coli UB1005, S. aureus SAP0017 (MRSA) and C. albicans 105 were grown in Mueller Hinton (MH) (Difco, BD Biosciences, MD) agar plates and broth (2 g of beef extract, 17.5 g of acid hydrolysis of casein and 1.5 g of starch per liter) at 37° C. unless otherwise indicated. Bacteria from frozen stock were subcultured onto freshly made MH agar plates prior to susceptibility testing. For P. acnes, the bacterium was grown in BBL™ Brain-Heart infusion (Becton, Dickinson & Company, Sparks Md.) broth or agar plates at 37° C. in anaerobic condition generated using a anaerobic jar and AnaeroGen™ (Oxoid, Basingstoke, Hampshire, England).
as §1

[5] = system: C. albicans 105; test: Kill kinetics in PBS; format: cell-based; conditions: detection limit 10 CFU/ml
[6] = system: S. aureus SAP0017 (MRSA); format: cell-based, Staphylococcus aureus; conditions: S. aureus in PBS, detection limit 10 CFU/ml
Experimental: as §1

[7] = system: S. aureus SAP0017 (MRSA); test: Kill kinetics in 10% fetal bovine serum; format: cell-based, Staphylococcus aureus; conditions: for survival of microbes (CFU/ml), 0 hr / survival of microbes (CFU/ml), 2 hr / survival of microbes (CFU/ml), 3 hr / survival of microbes (CFU/ml), 5 hr / survival of microbes (CFU/ml), 6 hr: S. aureus in 10% fetal bovine serum

Row | Compound | survival of microbes (CFU/ml), 0 hr [1] | survival of microbes (CFU/ml), 20 min [1] | survival of microbes (CFU/ml), 1 hr [1] | survival of microbes (CFU/ml), 2 hr [1] | survival of microbes (CFU/ml), 3 hr [1] | Toxicity EpiDerm [2] | antimicrobial activity (in words) [4] | survival of microbes (CFU/ml), 0 hr [5] | survival of microbes (CFU/ml), 20 min [5] | survival of microbes (CFU/ml), 1 hr [5] | survival of microbes (CFU/ml), 2 hr [5] | survival of microbes (CFU/ml), 3 hr [5] | survival of microbes (CFU/ml), 0 hr [6] | survival of microbes (CFU/ml), 20 min [6] | survival of microbes (CFU/ml), 1 hr [6] | survival of microbes (CFU/ml), 2 hr [6] | survival of microbes (CFU/ml), 3 hr [6] | survival of microbes (CFU/ml), 0 hr [7] | survival of microbes (CFU/ml), 2 hr [7] | survival of microbes (CFU/ml), 3 hr [7] | also measured
1 | CCCCCCCCCCCCCCCC(=O)N[C@@H](CCCCN)C(=O)N1CCC[C@@H]1C(N)=O [HB2203, Pal-K-dP-NH2] (Palmitoyl-Lys-[dP]-NH2) | 750000 CFU/ml | <10 CFU/ml | <10 CFU/ml | <10 CFU/ml | <10 CFU/ml | > 2000 µg/mL | novel antimicrobial activity similar to the parent lipotripeptide | 1300000 CFU/ml | 2980 CFU/ml | 160 CFU/ml | 30 CFU/ml | <10 CFU/ml | 23050000 CFU/ml | <10 CFU/ml | <10 CFU/ml | <10 CFU/ml | <10 CFU/ml | 30900000 CFU/ml | 1927000 CFU/ml | 142500 CFU/ml | logs of microorganisms eradicated [3]: more than 5 logs; survival of microbes (CFU/ml), 5 hr [7]: 68560 CFU/ml; survival of microbes (CFU/ml), 6 hr [7]: 34280 CFU/ml; killing activity against S. aureus in serum (in words) ([7]; in the presence of 10% fetal bovine serum): maintained significant killing activity
2 | CC(C)[C@H](NC(=O)[C@@H]1CCCN1C(=O)[C@@H](N)CCCCN)C(N)=O [HB2068, KPV-NH2, reference compound] (H-Lys-Pro-Val-NH2) | 750000 CFU/ml | 750000 CFU/ml | 750000 CFU/ml | 750000 CFU/ml | 750000 CFU/ml |  |  | 1300000 CFU/ml | 1300000 CFU/ml | 1300000 CFU/ml | 1300000 CFU/ml | 1300000 CFU/ml | 23050000 CFU/ml | 23050000 CFU/ml | 23050000 CFU/ml | 23050000 CFU/ml | 23050000 CFU/ml | 30900000 CFU/ml | 30900000 CFU/ml | 30900000 CFU/ml | MIC (no detectable MIC / inactive at up to) [4]: > 2000 µg/mL; survival of microbes (CFU/ml), 5 hr [7]: 30900000 CFU/ml; survival of microbes (CFU/ml), 6 hr [7]: 30900000 CFU/ml
3 | CCCCCCCCCCCCCCCC(=O)N[C@@H](CCCCN)C(=O)N1CCC[C@H]1C(=O)N[C@@H](C)C(N)=O [HB2208, Pal-KPA-NH2] (Palmitoyl-Lys-Pro-Ala-NH2) | 750000 CFU/ml | <10 CFU/ml | <10 CFU/ml | <10 CFU/ml | <10 CFU/ml | > 2000 µg/mL | decent broad spectrum antimicrobial activity |  |  |  |  |  | 23050000 CFU/ml | <10 CFU/ml | <10 CFU/ml | <10 CFU/ml | <10 CFU/ml |  |  |  | 
4 | C[C@@H](O)[C@H](NC(=O)[C@H]1CCCN1C(=O)[C@@H](N)CCCCN)C(=O)O [HB2090, K-dPT-OH, reference compound] (H-Lys-[dP]-Thr-OH) |  |  |  |  |  |  |  |  |  |  |  |  |  |  |  |  |  |  |  |  | MIC (no detectable MIC / inactive at up to) [4]: > 2000 µg/mL
